Laboratory results: article PMC9756341 (Journal of the American Chemical Society, 2022)

Assays:
[1] = general procedure: Fmoc solid-phase peptide synthesis; 2-chlorotrityl chloride resin; settings: whole synthesis, scale 0.1 mmol
[2] = general procedure: Fmoc solid-phase peptide synthesis; rink amide resin; settings: whole synthesis, scale 0.03 mmol

Row | Substance | isolated mass [1] [mg] | isolated mass [2] [mg]
1 | Yn-Thr(Z)-Ala-Tyr(Z)-Phg(4-guan)-DPP | 1.8 | –
2 | Biotin-Ahx-Thr(Z)-Cha-Dht-Phg(4-guan)-DPP | 3.2 | –
3 | Yn-Thr(Z)-Chg-His(Z)-Phg(4-guan)-DPP | 1.1 | –
4 | Yn-Thr(Z)-Ala-Ser(Z)-Phg(4-guan)-DPP | 1.5 | –
5 | Yn-Asp(Chx)-Cha-His(Z)-Phg(4-guan)-DPP | 1.2 | –
6 | Ac-KHLF-{ACC} | – | 7.5
7 | Biotin-Ahx-DPhe-Cha-Dht-Phg(4-guan)-DPP | 4.3 | –
8 | Biotin-Ahx-Thr(Z)-Ala-Dht-Phg(4-guan)-DPP | 6 | –
9 | Yn-Thr(Z)-Cha-His(Z)-Phg(4-guan)-DPP | 4.6 | –
10 | Yn-DPhe-Ser(Z)-Dht-DArg-DPP | 4 | –
11 | Biotin-Ahx-DPhe-Ser(Z)-Dht-Arg-DPP | 5.3 | –
12 | Ac-T(Cbz)A[Phg]R-{ACC} | – | 3.9
13 | Biotin-Ahx-DPhe-Ser(Z)-Dht-DArg-DPP | 6.7 | –
14 | Biotin-Ahx-DPhe-Cha-Ser(Ac)-Phg(4-guan)-DPP | 5.1 | –
15 | Biotin-Ahx-DPhe-Cha-Dht-Arg-DPP | 5.7 | –
16 | Yn-Thr(Z)-Ala-Dab(Z)-Phg(4-guan)-DPP | 2.0 | –
17 | Biotin-Ahx-DPhe-Lys-Dht-Phg(4-guan)-DPP | 8.7 | –
18 | Biotin-Ahx-DPhe-Dlys-Dht-Phg(4-guan)-DPP | 3.4 | –
19 | Biotin-Ahx-DhPhe-Cha-Dht-Phg(4-guan)-DPP | 1.9 | –
20 | Ac-DPhe-Ser(Z)-Dht-Arg-ACC | – | 7
21 | Yn-Thr(Z)-Ala-Phg-Phg(4-guan)-DPP | 1.5 | –
22 | Yn-DPhe-Ser(Z)-Dht-Arg-DPP | 5 | –
23 | Yn-Thr(Z)-Ala-Dht-Phg(4-guan)-DPP | 2.2 | –

[ ]: non-standard residue; d: D form. The star is where a group is joined. ACC = NC(=O)Cc1cc(=O)oc2cc(N*)ccc12; Phg = N[C@H](C(=O)O)c1ccccc1; Cbz = O=C(OCc1ccccc1)*
